Measured data: PubChem BioAssay AID743454 (Peter MacCallum Cancer Centre, 2014)

Screen: 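Genes whose loss kills vorinostat-resistant colon cancer cells under vorinostat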 (primary screen)
Cells: human HCT116-VR colon cancer cells, selected for vorinostat resistance
Reagents: siRNA pool against human genes, 40 nM siRNA pool
Duration: vorinostat for 24 h, read-out about 72 h after transfection
Conditions: vorinostat at 2.5 µM final
Measurement: 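Two measures, CellTiter-Fluor viability and luminescent caspase 3/7 activity, each as fold change against same-plate mock wells, mean of duplicates, then screen-wide robust z-score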
Reading the numbers: viability robust z-score: higher = more viable cells than screen typical; caspase robust z-score: higher = more caspase 3/7 activity than screen typical
Active means: 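a knock-down is a hit when classed RV1 or RV2 for lowered viability, or CA1 or CA2 for caspase activation; those lethal without drug were dropped; hits were retested singly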
This is a random part of about 18,000 reagents tested. 450 of them (2.5%) were called active. 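Single biological run; no consistent viability z cut-off exists, so the class columns, not z-scores, define the calls.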 A number with no mark means an inactive call.

gene | viability hit class | caspase hit class | viability robust z-score | caspase robust z-score
CCL21 (GeneID 6366) | no change | no change | -0.11 | 0.22
CFHR5 (GeneID 81494) | no change | no change | -2.05 | -0.57
TSNARE1 (GeneID 203062) | no change | no change | -0.19 | -0.34
TAB1 (GeneID 10454) | no change | no change | 1.1 | -0.43
ABLIM1 (GeneID 3983) | no change | no change | -1.29 | 3.07
RELL1 (GeneID 768211) | no change | no change | 0.51 | 0.1
CFAP68 (GeneID 64776) | no change | no change | -0.52 | -0.43
PRDX4 (GeneID 10549) | no change | no change | 1.16 | -0.32
ASTN1 (GeneID 460) | no change | no change | -0.88 | -0.28
PBLD (GeneID 64081) | no change | no change | -1.94 | -0.82
PATE2 (GeneID 399967) | no change | no change | 0.18 | -0.2
QTMAN (GeneID 79712) | no change | no change | -1.04 | -0.28
OVOL2 (GeneID 58495) | no change | no change | 0.39 | 4.49
MAP3K9 (GeneID 4293) | no change | no change | -1.75 | -0.18
TFE3 (GeneID 7030) | no change | no change | 0.3 | -0.53
KHDRBS1 (GeneID 10657) | no change | no change | -1.94 | 1.87
MAT1A (GeneID 4143) | no change | no change | 0.16 | -0.47
TMED5 (GeneID 50999) | no change | no change | -0.22 | -0.62
PRKACB (GeneID 5567) | no change | no change | 1.38 | 1.1
TBC1D3B (GeneID 414059) | no change | no change | 1.34 | -0.3
PDAP1 (GeneID 11333) | no change | no change | 2.5 | 0.03
AFG1L (GeneID 246269) | no change | no change | -0.62 | -0.45
FBXL13 (GeneID 222235) | no change | no change | -0.92 | 0.44
PHETA1 (GeneID 144717) | no change | no change | -0.16 | 5.08
BTN3A1 (GeneID 11119) | RV2 (reduced viability) (active) | no change | -3.53 | 2.16
H3C11 (GeneID 8354) | no change | no change | -0.38 | 0.02
NARF (GeneID 26502) | no change | no change | -0.37 | -0.21
FBXW12 (GeneID 285231) | no change | no change | 0.86 | -0.16
ZNF45 (GeneID 7596) | no change | no change | 0.4 | 1.69
CXCL14 (GeneID 9547) | no change | no change | 1.22 | -0.04
GAL3ST3 (GeneID 89792) | no change | no change | -0.36 | -0.18
GFUS (GeneID 7264) | no change | no change | -0.85 | 0.6
TBCB (GeneID 1155) | no change | no change | -0.22 | -0.85
KCTD16 (GeneID 57528) | no change | no change | 0.27 | -0.48
SLC19A2 (GeneID 10560) | no change | no change | 1.21 | -0.5
CPT1B (GeneID 1375) | no change | no change | -0.04 | -0.16
MMP12 (GeneID 4321) | no change | no change | 0.52 | -0.77
LIMD2 (GeneID 80774) | no change | no change | 0.09 | -0.52
FMO4 (GeneID 2329) | no change | no change | -1.52 | 1.42
UNC80 (GeneID 285175) | no change | no change | -2.05 | -0.4
CIMAP3 (GeneID 128344) | no change | no change | -0.54 | -0.26
ENPP2 (GeneID 5168) | no change | no change | 0.54 | -0.17
ADGRF1 (GeneID 266977) | no change | no change | 0.57 | 0.08
KDM4A (GeneID 9682) | no change | no change | -1.67 | 2.24
DCLRE1A (GeneID 9937) | no change | no change | -0.77 | 0.44
S100A5 (GeneID 6276) | no change | no change | 1.3 | 1.15
CST5 (GeneID 1473) | no change | no change | -0.74 | 0.01
RPS15A (GeneID 6210) | no change | no change | -4.67 | -0.66
MPDZ (GeneID 8777) | no change | no change | 0.26 | -0.86
MINDY4 (GeneID 84182) | no change | no change | 0.84 | 0.78
DRC2 (GeneID 85478) | no change | no change | 0.82 | -0.92
MS4A14 (GeneID 84689) | no change | no change | -1.21 | -0.1
CCDC117 (GeneID 150275) | no change | no change | -1.4 | 4.06
GLP2R (GeneID 9340) | no change | no change | 0.82 | -0.58
ZDHHC12 (GeneID 84885) | no change | no change | -0.64 | -0.58
NR2E1 (GeneID 7101) | no change | no change | -0.33 | -0.24
THAP7 (GeneID 80764) | no change | no change | -0.26 | -0.52

Individual results from the list.
Under “caspase robust z-score”, AFG1L (GeneID 246269) reads -0.45
CST5 (GeneID 1473), caspase hit class: no change
Under “viability hit class”, LIMD2 (GeneID 80774) reads no change
Under “viability robust z-score”, PATE2 (GeneID 399967) reads 0.18
Entry of TBCB (GeneID 1155) under “viability hit class”: no change
Result of RELL1 (GeneID 768211) in “caspase hit class”: no change
